Measurements reported in PubChem BioAssay AID1224830 (NIAID, 2016).
Shown is an unselected part of about 18,000 reagents. About 2,900 of all reagents (16%) count as active. 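Calls are made per well; low scores hint the gene aids the LPS response, high scores that it dampens it.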 Unmarked entries are inactive. Repeated entries: four replicate wells of each siRNA pool. Reagent sequences are not shown.

Assay: 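Genes whose knock-down alters the TNF-alpha reporter response to LPS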 (primary screen)
Cell system: human THP-1 monocytic leukaemia cells, TNF dual-luciferase reporter clone, PMA-differentiated to macrophage-like cells
Reagents: siRNA pool against human genes, 50 nM
Timing: LPS for 4 h, given about 3 days after siRNA transfection
Treatment: bacterial LPS (TLR4 ligand), 10 ng/ml
Measurement: 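TNF firefly reporter luminescence divided by renilla, normalised to the plate median, then turned into a robust z-score for each replicate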
Direction: TNF reporter robust z-score: higher = stronger TNF reporter response to LPS
Call rule: 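Each well counts as active if its z-score is over 2.8 or under -1.5; controls are left without a call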

KPRP (GeneID 448834) scored TNF reporter robust z-score 3.65 (active).
Silencing of KPRP (GeneID 448834) gave: TNF reporter robust z-score 2.28.
Against KPRP (GeneID 448834), the entry reads TNF reporter robust z-score 1.4.
Against KPRP (GeneID 448834), the values are TNF reporter robust z-score 0.61.
For KRT14 (GeneID 3861) the deposit lists TNF reporter robust z-score -1.56 (active).
KRT14 (GeneID 3861) showed TNF reporter robust z-score -0.84.
Against KRT14 (GeneID 3861), the entry reads TNF reporter robust z-score -1.08.
Knock-down of KRT14 (GeneID 3861) gave: TNF reporter robust z-score -0.89.
With knock-down of GM2A (GeneID 2760), the screen gave TNF reporter robust z-score -1.15.
Against GM2A (GeneID 2760) the deposit lists TNF reporter robust z-score -1.02.
GM2A (GeneID 2760) showed TNF reporter robust z-score 0.47.
For GM2A (GeneID 2760) the deposit lists TNF reporter robust z-score -1.1.
RAB3A (GeneID 5864) gave TNF reporter robust z-score 0.64.
With knock-down of RAB3A (GeneID 5864) the results were TNF reporter robust z-score 2.44.
After knock-down of RAB3A (GeneID 5864), the record shows TNF reporter robust z-score 2.42.
RAB3A (GeneID 5864) scored TNF reporter robust z-score 1.13.
After knock-down of VPS13A (GeneID 23230), the screen gave TNF reporter robust z-score -0.94.
After knock-down of VPS13A (GeneID 23230), the screen gave TNF reporter robust z-score 0.03.
VPS13A (GeneID 23230) showed TNF reporter robust z-score -0.05.
VPS13A (GeneID 23230) showed TNF reporter robust z-score 1.02.
After knock-down of OTUD7B (GeneID 56957), the screen gave TNF reporter robust z-score -1.81 (active).
For OTUD7B (GeneID 56957) the deposit lists TNF reporter robust z-score -2.14 (active).
Against OTUD7B (GeneID 56957), the values are TNF reporter robust z-score -1.38.
Silencing of OTUD7B (GeneID 56957) resulted in: TNF reporter robust z-score 0.99.

Hits, of those listed so far:
KPRP (GeneID 448834) | TNF reporter robust z-score = 3.65 (active)
KRT14 (GeneID 3861) | TNF reporter robust z-score = -1.56 (active)
OTUD7B (GeneID 56957) | TNF reporter robust z-score = -1.81 (active)
OTUD7B (GeneID 56957) | TNF reporter robust z-score = -2.14 (active)

The list goes on.
Silencing of ACMSD (GeneID 130013) came out at: TNF reporter robust z-score -0.99.
ACMSD (GeneID 130013) showed TNF reporter robust z-score -0.82.
After knock-down of ACMSD (GeneID 130013), the screen gave TNF reporter robust z-score -0.12.
ACMSD (GeneID 130013) showed TNF reporter robust z-score -0.35.
For COMMD5 (GeneID 28991) the deposit lists TNF reporter robust z-score -0.73.
COMMD5 (GeneID 28991) scored TNF reporter robust z-score 0.53.
Silencing of COMMD5 (GeneID 28991) came out at: TNF reporter robust z-score -0.61.
For COMMD5 (GeneID 28991), the values are TNF reporter robust z-score -0.55.
Silencing of PIANP (GeneID 196500) came out at: TNF reporter robust z-score 0.55.
Depletion of PIANP (GeneID 196500) came out at: TNF reporter robust z-score 1.29.
Against PIANP (GeneID 196500), the values are TNF reporter robust z-score -0.52.
PIANP (GeneID 196500) showed TNF reporter robust z-score 0.15.
Knock-down of DAND5 (GeneID 199699) came out at: TNF reporter robust z-score 1.89.
Depletion of DAND5 (GeneID 199699) gave: TNF reporter robust z-score 1.52.
Against DAND5 (GeneID 199699), the entry reads TNF reporter robust z-score 0.29.
Against DAND5 (GeneID 199699), the values are TNF reporter robust z-score 1.36.
After knock-down of NLGN4Y (GeneID 22829), the screen gave TNF reporter robust z-score 1.22.
For NLGN4Y (GeneID 22829) the deposit lists TNF reporter robust z-score 2.1.
After knock-down of NLGN4Y (GeneID 22829), the record shows TNF reporter robust z-score 1.01.
With knock-down of NLGN4Y (GeneID 22829), the screen gave TNF reporter robust z-score 2.67.
ADAMTSL3 (GeneID 57188) gave TNF reporter robust z-score 0.65.
With knock-down of ADAMTSL3 (GeneID 57188), the screen gave TNF reporter robust z-score -0.42.
For ADAMTSL3 (GeneID 57188), the values are TNF reporter robust z-score -1.04.
With knock-down of ADAMTSL3 (GeneID 57188), the screen gave TNF reporter robust z-score -0.1.
COMMD4 (GeneID 54939) showed TNF reporter robust z-score -0.19.
COMMD4 (GeneID 54939) showed TNF reporter robust z-score 0.38.
Knock-down of COMMD4 (GeneID 54939) gave: TNF reporter robust z-score 0.29.
COMMD4 (GeneID 54939) showed TNF reporter robust z-score -1.39.
After knock-down of DBNDD1 (GeneID 79007), the screen gave TNF reporter robust z-score -1.39.
For DBNDD1 (GeneID 79007), the entry reads TNF reporter robust z-score -0.67.
DBNDD1 (GeneID 79007) gave TNF reporter robust z-score -0.24.
For DBNDD1 (GeneID 79007), the values are TNF reporter robust z-score 0.53.
With knock-down of LIG3 (GeneID 3980), the screen gave TNF reporter robust z-score -0.49.
Knock-down of LIG3 (GeneID 3980) came out at: TNF reporter robust z-score 0.72.
LIG3 (GeneID 3980) scored TNF reporter robust z-score -0.31.
For LIG3 (GeneID 3980), the entry reads TNF reporter robust z-score -0.67.
